According to PubChem BioAssay AID330 (DTP/NCI, 2004):
The list does not hold the whole screen: it is rich in T/C values a quarter to a half above the control, in often repeated tests (any T/C) and in doses without a T/C. Further doses and runs are listed elsewhere. T/C gives the treated animals as a percentage of the vehicle group. Some entries give survivors of the animals treated and no T/C: the source files T/C as zero there, which appears to mark a toxic dose or a test without result, not a measured value. Some survivor counts are full or nearly so, which does not show that the dose was tolerated: survival well below the control is almost never listed, so the zero probably covers shortened survival too. Survivors were counted at the toxicity check, usually on the fifth day, unless a day is given; later deaths do not show. Schedules are NCI's codes, read here as Q, the interval in days (D) or hours (H), X, the number of doses. Some entries hold several experiments; the values are given in rising order. For survival time, the PubChem record calls one and a half times the control and up active, and a quarter to a half above the control has no call in these data; cut-offs in other NCI protocols can differ.

Tested on: P388 leukemia ip, CD2F1 mice, survival T/C
Assay: NCI In Vivo Anticancer Drug Screen. Data for tumor model P388 Leukemia (intraperitoneal) in CD2F1 (CDF1) mice
Conditions: T/C endpoint: median survival time, higher T/C = longer survival
[1] = dose: 200.0 mg/kg/injection, schedule: Q01DX005 (ip), vehicle: Klucel (hydroxypropylcellulose) (HPC)
[2] = dose: 100.0 mg/kg/injection, schedule: Q04DX003 (ip), vehicle: Klucel (hydroxypropylcellulose) (HPC)
[3] = dose: 200.0 mg/kg/injection, schedule: Q04DX003 (ip), vehicle: Klucel (hydroxypropylcellulose) (HPC)
[4] = dose: 400.0 mg/kg/injection, schedule: Q04DX003 (ip), vehicle: Klucel (hydroxypropylcellulose) (HPC)
[5] = dose: 200.0 mg/kg/injection, schedule: Q01DX009 (ip), vehicle: saline

Q: Which results are given for `COC1=CC(=Nc2ccc(N(CCCl)CCCl)cc2)C=CC1=O`?
A: T/C (dose: 12.5 mg/kg/injection, schedule: Q01DX009 (ip), vehicle: Klucel (hydroxypropylcellulose) (HPC)): 133 % of control; survivor count (dose: 200.0 mg/kg/injection, schedule: Q01DX009 (ip), vehicle: Klucel (hydroxypropylcellulose) (HPC)): 2 of 6

Q: With `Cc1oc(-c2ccccc2)nc1C(N)=O` as the compound, how does the T/C (dose: 200.0 mg/kg/injection, schedule: Q01DX009 (ip), vehicle: saline with Tween-80) read?
A: 133 % of control

Q: Which results are given for `[CH3][Sn]([CH3])([n]1cnc2ccccc21)[n]1cnc2ccccc21`?
A: survivor count (dose: 50.0 mg/kg/injection, schedule: Q01DX005 (ip), vehicle: Klucel (hydroxypropylcellulose) (HPC)): 1 of 6; survivor count (dose: 100.0 mg/kg/injection, schedule: Q01DX005 (ip), vehicle: Klucel (hydroxypropylcellulose) (HPC)): 4 of 6; survivor count [1]: 0 of 6

Q: Which results are given for `CN(C)Cc1ncccc1O`?
A: survivor count (dose: 400.0 mg/kg/injection, schedule: Q01DX009 (ip), vehicle: saline): 3 of 6; survivor count (dose: 600.0 mg/kg/injection, schedule: Q01DX009 (ip), vehicle: saline): 0 of 6

Q: `O=C1CSC(=S)N1c1ccco1` was tested. Which survivor count (dose: 400.0 mg/kg/injection, schedule: Q01DX009 (ip), vehicle: saline with Tween-80) did it give?
A: 3 of 6

Q: With `CS/C(=C1/C(=O)N(c2ccccc2)N=C1C)N1CC1` as the compound, how does the survivor count [2] read?
A: 0 of 6 and 2 of 6

Q: What about the survivor count [3] of the same compound?
A: 0 of 6

Q: What about the survivor count [4] of the same compound?
A: 0 of 5

Q: `C=CCOc1ccccc1/C(CC)=N/N(C)C` was tested. Which survivor count [5] did it give?
A: 1 of 6

Q: How did the T/C [1] turn out when `Fc1cccc(C(Nc2nncs2)Nc2nncs2)c1` was run?
A: 129 and 138 % of control

Q: How did the survivor count (dose: 6.25 mg/kg/injection, schedule: Q04DX003 (ip), vehicle: Klucel (hydroxypropylcellulose) (HPC)) turn out when `Cc1ccc2c[n+]3ccccc3c(-c3ccccc3)c2c1` was run?
A: 5 of 5

Q: And the survivor count (dose: 12.5 mg/kg/injection, schedule: Q04DX003 (ip), vehicle: Klucel (hydroxypropylcellulose) (HPC))?
A: 0 of 5

Q: And the survivor count (dose: 25.0 mg/kg/injection, schedule: Q04DX003 (ip), vehicle: Klucel (hydroxypropylcellulose) (HPC))?
A: 1 of 5

Q: And the survivor count (dose: 50.0 mg/kg/injection, schedule: Q04DX003 (ip), vehicle: Klucel (hydroxypropylcellulose) (HPC))?
A: 0 of 5

Q: What about the survivor count [2] of the same compound?
A: 0 of 5

Q: And the survivor count [3]?
A: 0 of 5

Q: And the survivor count [4]?
A: 0 of 5

Q: With `Oc1cc2c(cc1O)[C@H]1c3ccc(O)c(O)c3OC[C@@]1(O)C2` as the compound, how does the T/C (dose: 50.0 mg/kg/injection, schedule: Q01DX009 (ip), vehicle: saline) read?
A: 127 % of control

Q: Which survivor count (dose: 60.0 mg/kg/injection, schedule: Q01DX005 (ip), vehicle: Klucel (hydroxypropylcellulose) (HPC)) does the source give for `Cc1ccc(N(CN2C(=O)CCC2=O)CS(=O)(=O)c2ccc(C)cc2)cc1` here?
A: 6 of 6

Q: How did the survivor count (dose: 240.0 mg/kg/injection, schedule: Q01DX005 (ip), vehicle: Klucel (hydroxypropylcellulose) (HPC)) turn out when `COc1cccc(C2c3cc4c(cc3OC(C)(N3CCCC3)C2C)OCO4)c1OC` (stereo not given) was run?
A: 5 of 6

Q: `COc1ccc(OCC(O)CN2CCN(c3ccc(Cl)cc3)CC2)cc1` (stereo not given) was tested. Which survivor count [4] did it give?
A: 6 of 6

Q: `CC1=C(C)CN(CCc2c[nH]c3ccccc23)C(C#N)C1` (stereo not given) was tested. Which survivor count (dose: 100.0 mg/kg/injection, schedule: Q01DX005 (ip), vehicle: saline with Tween-80) did it give?
A: 0 of 5

Q: And the survivor count (dose: 200.0 mg/kg/injection, schedule: Q01DX005 (ip), vehicle: saline with Tween-80)?
A: 0 of 5

Q: How did the survivor count (dose: 100.0 mg/kg/injection, schedule: Q01DX009 (ip), vehicle: saline) turn out when `[Co].[N-]=C=S.[N-]=C=S.[N-]=C=S.[N-]=C=S` was run?
A: 0 of 6

Q: And the survivor count [5]?
A: 0 of 6

Q: With `CCCCCn1c(C)cc(/C=C\c2ccc3cc(C)ccc3[n+]2C)c1C` as the compound, how does the T/C (dose: 0.5 mg/kg/injection, schedule: Q01DX009 (ip), vehicle: saline) read?
A: 133 % of control

Q: What about the survivor count (dose: 1.0 mg/kg/injection, schedule: Q01DX009 (ip), vehicle: saline) of the same compound?
A: 1 of 6

Q: What about the survivor count (dose: 2.0 mg/kg/injection, schedule: Q01DX009 (ip), vehicle: saline) of the same compound?
A: 1 of 6

Q: And the survivor count (dose: 6.25 mg/kg/injection, schedule: Q04DX003 (ip), vehicle: saline)?
A: 4 of 6

Q: And the survivor count (dose: 12.5 mg/kg/injection, schedule: Q04DX003 (ip), vehicle: saline)?
A: 1 of 6

Q: And the survivor count (dose: 25.0 mg/kg/injection, schedule: Q04DX003 (ip), vehicle: saline)?
A: 0 of 6
